Assay results taken from article PMC5261805.
These are yes or no findings as the source states them, for the method shown. Binding can be weak; no strength is given.

Protein sequences, listed by entry. Tags and fused reporters are not part of them. Lines headed by an entry give the natural chain unless they say otherwise; changes in a name come on top.
UniProt G5EFD9: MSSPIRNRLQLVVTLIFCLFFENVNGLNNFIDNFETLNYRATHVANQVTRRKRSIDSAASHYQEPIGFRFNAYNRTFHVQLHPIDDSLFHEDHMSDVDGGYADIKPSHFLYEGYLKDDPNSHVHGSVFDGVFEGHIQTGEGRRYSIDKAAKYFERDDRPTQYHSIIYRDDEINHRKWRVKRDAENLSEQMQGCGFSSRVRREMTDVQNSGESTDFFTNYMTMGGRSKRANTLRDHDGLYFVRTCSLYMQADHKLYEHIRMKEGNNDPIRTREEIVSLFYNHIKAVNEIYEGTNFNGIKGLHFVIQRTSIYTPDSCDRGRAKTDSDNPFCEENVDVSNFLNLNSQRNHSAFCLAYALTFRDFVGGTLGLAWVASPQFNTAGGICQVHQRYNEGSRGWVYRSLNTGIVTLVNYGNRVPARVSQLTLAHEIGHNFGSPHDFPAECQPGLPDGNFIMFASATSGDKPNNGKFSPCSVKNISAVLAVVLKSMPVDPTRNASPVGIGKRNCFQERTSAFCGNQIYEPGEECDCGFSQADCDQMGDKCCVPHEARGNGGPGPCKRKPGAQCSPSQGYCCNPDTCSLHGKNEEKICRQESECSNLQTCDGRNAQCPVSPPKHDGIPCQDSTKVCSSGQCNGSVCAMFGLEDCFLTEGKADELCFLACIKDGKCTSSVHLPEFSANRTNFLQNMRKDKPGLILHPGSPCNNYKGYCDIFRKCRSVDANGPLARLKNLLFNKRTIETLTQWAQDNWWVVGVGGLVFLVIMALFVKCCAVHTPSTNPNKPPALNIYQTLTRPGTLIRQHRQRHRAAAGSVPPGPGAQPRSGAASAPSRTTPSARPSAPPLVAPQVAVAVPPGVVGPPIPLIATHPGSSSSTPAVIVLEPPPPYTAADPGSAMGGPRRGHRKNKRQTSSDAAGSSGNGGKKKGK

Experiments:
[1] = target: T1, TSP-14 (C. elegans) (UniProt H2L006); test: two-hybrid; mating-based split-ubiquitin yeast two-hybrid for membrane proteins; bait CubPLV and prey NubG fusions; diploid cells streaked on SC-Trp, -Leu, -Ade, -His, -Ura, -Met plates with 0, 0.075, 0.150 or 0.300 mM methionine; growth 2-9 days at 30°C
T1 sequence: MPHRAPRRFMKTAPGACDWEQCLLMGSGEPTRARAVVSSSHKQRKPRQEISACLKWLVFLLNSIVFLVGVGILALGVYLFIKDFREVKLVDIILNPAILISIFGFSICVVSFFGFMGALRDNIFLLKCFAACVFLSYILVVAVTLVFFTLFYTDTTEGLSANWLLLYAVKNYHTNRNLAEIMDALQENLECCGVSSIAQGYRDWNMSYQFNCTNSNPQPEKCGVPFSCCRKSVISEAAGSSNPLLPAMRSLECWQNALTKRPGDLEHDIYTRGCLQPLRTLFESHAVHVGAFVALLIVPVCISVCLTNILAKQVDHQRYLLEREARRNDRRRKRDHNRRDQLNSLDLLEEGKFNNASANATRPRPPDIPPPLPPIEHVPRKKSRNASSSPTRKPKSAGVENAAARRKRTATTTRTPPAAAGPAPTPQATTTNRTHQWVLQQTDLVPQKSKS

[2] = target: T2, TSP-12 (C. elegans) (UniProt Q22495); test: as above
T2 sequence: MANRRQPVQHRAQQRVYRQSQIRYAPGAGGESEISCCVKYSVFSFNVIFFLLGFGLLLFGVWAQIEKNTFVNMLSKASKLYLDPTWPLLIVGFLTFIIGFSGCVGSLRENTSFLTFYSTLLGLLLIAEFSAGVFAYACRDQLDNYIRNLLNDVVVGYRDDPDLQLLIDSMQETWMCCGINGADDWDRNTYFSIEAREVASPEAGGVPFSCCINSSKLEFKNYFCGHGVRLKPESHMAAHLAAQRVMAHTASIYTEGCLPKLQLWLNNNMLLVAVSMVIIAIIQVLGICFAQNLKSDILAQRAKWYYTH

- binding [1]: binds
- binding [2]: binds
Substance: SUP-17 (from UniProt G5EFD9) (enzyme)
